Source: PubChem BioAssay AID445 (National Center for Advancing Translational Sciences (NCATS), 2006)
Some of the results follow. Shown are side measurements of this screen, not its main read-out; they come without a call. Compounds called inactive in the main read-out are mostly missing here. Potencies come from curve fits of mixed quality, noted in brackets.

Assay: IkB Signaling
Details: ABC-DLBCL IkBa-CBG/CBR dual luciferase ratio (green luciferase fused to IkBa over red control in OCI-Ly3 lymphoma cells), 4 h
In short: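 In this assay, an IκBα–CBG68 fusion accumulates when IKK-driven degradation is blocked; native CBR normalizes for cell number. OCI-Ly3 cells were treated 4 h with compound and doxycycline, then green and red light read after Chroma-Glo addition.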

[1] = measured here: control luc red channel unless noted

## Clc1ccc2c(c1)NC(c1ccncc1)=NC(c1cccs1)=N2
[1]
  AC50: 12.6 µM [falling, partial curve]

## COc1ccc2c(c1)CCc1c(C(=O)Nc3c(C)nn(Cc4ccccc4C)c3C)noc1-2
[1]
  AC50: 7.94 µM [falling, partial curve]

## COc1cc(CNC(=O)c2ccc3nc(CCc4ccccc4)oc3c2)cc(OC)c1OC
[1]
  AC50: 39.8 µM [falling, single point]

## CCN(CC)S(=O)(=O)c1cccc(C(=O)Nc2ccc(C#N)cc2)c1
[1]
  AC50: 7.94 µM [falling, partial curve]

## CNS(=O)(=O)c1cn(CC(=O)N2CCN(c3cccc(C)c3C)CC2)cc1S(=O)(=O)NC
[1]
  AC50: 20 µM [falling, partial curve]

## O=c1cc(-c2ccccc2)nc(SCc2nc(-c3ccc(Cl)cc3)no2)[nH]1
[1]
  AC50: 15.8 µM [rising, partial curve]

## CCN1CCN(C(=O)c2cnn(-c3cccc(Cl)c3)c2C2CCN(C(=O)OC(C)(C)C)CC2)CC1
[1]
  AC50: 20 µM [falling, single point]

## CCCCn1nnnc1SCC(=O)Nc1sc2c(c1C#N)CCCC2
[1]
  AC50: 31.6 µM [falling, single point]

## CN1CCN(c2ccccc2NC(=O)c2ccc(OCc3ccccc3)cc2)CC1
[1]
  AC50: 15.8 µM [falling, partial curve]

## Cc1cccc(NC(=O)c2ccc3snnc3c2)c1C
[1]
  AC50: 39.8 µM [falling, single point]

## N#C[C@@H]1[C@@H]2C(=O)N(c3ccc4c(c3)OCCO4)C(=O)[C@@H]2C2c3ccccc3C=CN21 (stereo partly drawn)
[1]
  AC50: 10 µM [falling, partial curve]

## Cc1cccc(NC(=O)c2cc3c(=O)n4cccc(C)c4nc3s2)c1C
[1]
  AC50: 0.0794 µM [rising, partial curve, poor fit]

## COCC(C)NC(=O)c1cc(-c2ccc(O)cc2)on1 (stereo not drawn)
[1]
  AC50: 15.8 µM [falling, partial curve]

## CC(C)CN(CCCNC(=O)CN1N=C(c2ccc(Cl)cc2)CCC1=O)CC(C)C
[1]
  AC50: 39.8 µM [falling, single point]

## Cc1ccc(OCC(=O)Nc2cccc(-c3nc4ccccc4s3)c2)cc1
[1]
  AC50: 15.8 µM [falling, partial curve]

## CCOc1ccc(NC(=O)C2CC(=O)NC(=Nc3ccc(Cl)c(Cl)c3)S2)cc1 (stereo not drawn)
[1]
  AC50: 7.94 µM [falling, full curve]

## Cc1c(C(=O)NCc2ccccc2)sc2nc3n(c(=O)c12)CCCCC3
[1]
  AC50: 2 µM [rising, partial curve]

## CCOC(=O)c1ccc(NC(=O)C2CCCN(c3ncnc4onc(-c5ccc(F)cc5)c34)C2)cc1 (stereo not drawn)
[1]
  AC50: 31.6 µM [falling, single point]

## COC(=O)C(Cc1c[nH]c2ccccc12)NC(=O)COc1cccc(C)c1 (stereo not drawn)
[1]
  AC50: 25.1 µM [falling, single point]

## COCCNC(=O)CCn1c(=O)c2cc(OC)c(OC)cc2n(CC(=O)Nc2ccc(Cl)cc2F)c1=O
[1]
  AC50: 12.6 µM [falling, partial curve, poor fit]

## O=C(COc1ccccc1)N1CCN(c2nnc(-c3ccccc3)c3ccccc23)CC1
[1]
  AC50: 12.6 µM [falling, partial curve]

## O=C(COc1ccccc1F)Nc1ccc2oc(-c3cccc(Cl)c3)nc2c1
[1]
  AC50: 0.631 µM [rising, full curve]

## Cc1ccc(-c2ccc(=O)n(CC(=O)Nc3ccc(C)cc3Cl)n2)cc1
[1]
  AC50: 20 µM [falling, partial curve]

## O=C(CSc1nnc(-c2cnccn2)n1Cc1ccco1)Nc1ccc(Br)cc1
[1]
  AC50: 12.6 µM [falling, partial curve]

## COc1ccc(C(=O)Nc2ccc3oc(-c4cccnc4)nc3c2)cc1
[1]
  AC50: 7.94 µM [falling, partial curve]

## Clc1cccc(N2CCN(c3nc4ccccc4n4nnnc34)CC2)c1
[1]
  AC50: 0.501 µM [falling, full curve]

## O=C(NCc1ccccc1)C1CCCN(S(=O)(=O)c2cccc3nsnc23)C1 (stereo not drawn)
[1]
  AC50: 5.01 µM [falling, full curve, poor fit]

## O=C1CN(C(=O)COc2ccc(Cl)cc2)C(c2ccccc2)c2cc(Br)ccc2N1 (stereo not drawn)
[1]
  AC50: 20 µM [falling, partial curve]

## CCCCCOC(=O)c1[nH]c2c(c1C)C(=O)C(C(=O)OC)C(C)C2 (stereo not drawn)
[1]
  AC50: 25.1 µM [falling, partial curve]

## CCOc1ccc(NC(=O)CN2C(=O)CC(C)Sc3ccccc32)cc1 (stereo not drawn)
[1]
  AC50: 15.8 µM [falling, single point]

## CCn1cc(CCC(=O)NCc2ccc(C)cc2)c2ccccc21
[1]
  AC50: 39.8 µM [falling, single point]

## CCOC(=O)Cc1csc(NC(=O)COc2ccc(N(C)S(=O)(=O)c3cccs3)cc2)n1
[1]
  AC50: 10 µM [falling, partial curve]

## COc1cc2c(=O)n(Cc3ccccc3Cl)c(=O)n(CC(=O)Nc3ccc(C)c(C)c3)c2cc1OC
[1]
  AC50: 39.8 µM [falling, partial curve]

## CCC1CN(C(=O)N2CCC(C(=O)NCc3ccc(N(C)C)cc3)CC2)c2ccccc2O1 (stereo not drawn)
[1]
  AC50: 12.6 µM [falling, partial curve]

## O=C(Nc1nc(-c2ccccn2)cs1)C1COc2ccccc2O1 (stereo not drawn)
Measured here: IkB-luc green channel
  AC50: 3.98 µM [rising, partial curve]
Measured here: control luc red channel
  AC50: 7.94 µM [falling, partial curve]

## O=C(C1CCCN(S(=O)(=O)c2ccc(F)cc2)C1)N(Cc1cccs1)C1CC1 (stereo not drawn)
[1]
  AC50: 25.1 µM [falling, partial curve]

## Cc1cc(N2CCC(C(=O)Nc3ccc(F)cc3)CC2)nc(-c2ccccc2)n1
[1]
  AC50: 25.1 µM [falling, partial curve]

## CCCOc1cccc(C(=O)Nc2cccc(-c3nc4ncccc4o3)c2C)c1
[1]
  AC50: 5.01 µM [falling, partial curve]

## CCn1cc2nc(SCC(=O)Nc3ccc(OC)c(OC)c3)n(Cc3ccc(Cl)cc3)c(=O)c2n1
[1]
  AC50: 20 µM [falling, partial curve]

## Cc1cn2c(=O)cc(COC(=O)c3cccc(NC(=O)c4ccc(C(C)(C)C)cc4)c3)nc2s1
[1]
  AC50: 3.16 µM [falling, full curve]

## Cc1c(C(=O)NCc2ccccc2Cl)sc2nc3n(c(=O)c12)CCCCC3
[1]
  AC50: 2 µM [falling, full curve]

## CC(=O)c1cccc(NC(=O)C2CCN(C(=O)c3cnn(-c4ccccc4)c3-n3cccc3)CC2)c1
[1]
  AC50: 20 µM [falling, single point]

## Cc1ccccc1-c1nc2scc(CCNS(=O)(=O)c3ccccc3)n2n1
[1]
  AC50: 12.6 µM [falling, partial curve]

## Cc1nn2c(=O)cc(COC(=O)c3cccc(NC(=O)CCc4ccccc4)c3)nc2s1
[1]
  AC50: 5.01 µM [falling, partial curve]

## O=C(Cn1cc(SCc2ccc(C(F)(F)F)cc2)c2ccccc21)N1CCOCC1
[1]
  AC50: 15.8 µM [falling, partial curve]

## O=C(NCc1ccccc1)c1cc2sccc2n1Cc1ccc(Cl)cc1
[1]
  AC50: 3.98 µM [falling, partial curve, poor fit]

## Cc1ccccc1NS(=O)(=O)c1ccc2[nH]cc(C(=O)N(C)Cc3ccco3)c(=O)c2c1
[1]
  AC50: 12.6 µM [falling, partial curve]

## Cc1ccc2occ(CC(=O)N(Cc3ccccc3Cl)C3CCS(=O)(=O)C3)c2c1 (stereo not drawn)
[1]
  AC50: 25.1 µM [falling, single point]

## O=C(CSc1oc(-c2ccccc2)nc1S(=O)(=O)c1ccc(Cl)cc1)Nc1ccc(F)cc1
[1]
  AC50: 25.1 µM [falling, partial curve]

## Cc1cc(OCC(=O)Nc2ccc3c(c2)OCCO3)ccc1Cl
[1]
  AC50: 20 µM [falling, partial curve]

## Cc1ccc(Cn2cc(CCC(=O)NC3CCC(C)CC3)c3ccccc32)cc1 (stereo not drawn)
[1]
  AC50: 7.94 µM [falling, partial curve]

## CC1CCC(Nc2nc3c(-c4ccc(Cl)cc4)nnn3c3ccccc23)CC1 (stereo not drawn)
[1]
  AC50: 1.26 µM [falling, full curve]

## Cc1c(OCc2ccc(C(=O)O)o2)ccc2c3c(c(=O)oc12)CCC3
[1]
  AC50: 3.16 µM [falling, full curve]

## Cc1cc(=O)[nH]c2nnc(SCc3ccc(F)cc3)n12
[1]
  AC50: 6.31 µM [rising, single point]

## O=C(CC(c1cccs1)N1Cc2ccccc2C1=O)Nc1ccc(F)c(F)c1 (stereo not drawn)
[1]
  AC50: 5.01 µM [falling, partial curve, poor fit]

## CCOC(=O)c1ccc(-n2c(CCC(=O)O)ccc2-c2ccc(Br)cc2)cc1
[1]
  AC50: 15.8 µM [falling, partial curve]

## O=c1cc(-c2ccc(Cl)c(Cl)c2)[nH][nH]1
[1]
  AC50: 6.31 µM [falling, partial curve]

## COc1ccc(CC(=O)Nc2sc3c(c2C(=O)Nc2cccc(Cl)c2)CCCCC3)cc1
[1]
  AC50: 7.94 µM [falling, partial curve, poor fit]

## CCn1cc(Br)c(C(=O)Nc2ccc(C(=O)OC(C)C)cc2)n1
[1]
  AC50: 25.1 µM [falling, single point]

## CC(C)Oc1ccc(CNC(=O)CCCN2C(=O)CCn3nc(-c4cccn4C)cc32)cc1
[1]
  AC50: 20 µM [falling, partial curve]

## O=C(c1ccco1)n1nc(-c2ccccc2)nc1NCc1ccc(Cl)cc1
[1]
  AC50: 0.1 µM [rising, full curve]

## Cc1nn(-c2ccccc2)c2c1N(CCCC(=O)NCc1ccc(N(C)C)cc1)C(=O)CS2
[1]
  AC50: 15.8 µM [falling, partial curve]
